Assay results from article PMC4760221, “Phosphorylation Regulates the Endocytic Function of the Yeast Dynamin-Related Protein Vps1” (Molecular and Cellular Biology, 2015).
Changes are numbered by the printed parent chain. These are yes or no findings as the source states them, for the method shown. Some binding calls cover weakened binding; strength is not graded here.

Columns and labels:
[1] = biological target: T1, Gal4BD-Vps1(276-704) (S. cerevisiae) (UniProt P21576); assay: two-hybrid; Vps1(276-704) as Gal4 binding domain fusion, Rvs167 fused to the Gal4 activation domain, strain pJ69-2A; growth on medium lacking histidine, leucine and tryptophan; controls with empty plasmids
T1 sequence: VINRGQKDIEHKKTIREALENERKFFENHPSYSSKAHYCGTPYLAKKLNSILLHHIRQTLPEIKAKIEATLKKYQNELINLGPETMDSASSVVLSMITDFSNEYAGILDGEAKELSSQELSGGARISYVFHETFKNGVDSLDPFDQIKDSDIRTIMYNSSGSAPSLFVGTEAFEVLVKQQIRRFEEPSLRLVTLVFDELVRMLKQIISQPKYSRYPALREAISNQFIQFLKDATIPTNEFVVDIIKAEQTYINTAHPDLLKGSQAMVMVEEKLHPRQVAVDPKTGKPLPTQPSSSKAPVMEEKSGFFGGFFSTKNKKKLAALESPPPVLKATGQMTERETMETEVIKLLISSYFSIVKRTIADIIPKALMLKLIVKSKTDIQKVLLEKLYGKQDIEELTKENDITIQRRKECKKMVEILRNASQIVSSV

[2] = biological target: T2, Gal4BD-Vps1(276-704) S599D (S. cerevisiae) (UniProt P21576); assay: as above
T2 sequence: T1 sequence with S324D

“GalAD-Rvs167 (from UniProt P39743 1-482)” was tested, and the binding [1] was “binds” and the binding [2] was “binds”.
